Measurements as given in publication doi:10.1101/2025.03.09.642289.
No constants are given. Whether binding was seen depends on the method and setting. Binding seen in cells or lysates may run through a third protein. These calls come from enrichment with a bait or labelling near it, and not all partners need be listed.

Sequences of proteins named here, by UniProt entry; tags and fusion partners are left off.
UniProt Q9Z265: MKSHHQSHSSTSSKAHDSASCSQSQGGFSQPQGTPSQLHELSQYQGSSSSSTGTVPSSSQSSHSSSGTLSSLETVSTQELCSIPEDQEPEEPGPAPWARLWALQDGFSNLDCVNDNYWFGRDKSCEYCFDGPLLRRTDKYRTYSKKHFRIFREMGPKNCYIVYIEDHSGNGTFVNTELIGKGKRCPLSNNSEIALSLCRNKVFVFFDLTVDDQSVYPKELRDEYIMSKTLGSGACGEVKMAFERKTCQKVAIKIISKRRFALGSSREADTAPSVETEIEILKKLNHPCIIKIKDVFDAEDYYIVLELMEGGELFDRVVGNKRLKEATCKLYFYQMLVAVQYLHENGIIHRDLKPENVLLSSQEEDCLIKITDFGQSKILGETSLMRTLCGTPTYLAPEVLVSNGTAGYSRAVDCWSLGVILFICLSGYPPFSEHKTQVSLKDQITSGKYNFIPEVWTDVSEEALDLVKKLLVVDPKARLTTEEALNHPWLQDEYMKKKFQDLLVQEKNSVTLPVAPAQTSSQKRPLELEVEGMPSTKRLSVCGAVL
UniProt Q8BPN8: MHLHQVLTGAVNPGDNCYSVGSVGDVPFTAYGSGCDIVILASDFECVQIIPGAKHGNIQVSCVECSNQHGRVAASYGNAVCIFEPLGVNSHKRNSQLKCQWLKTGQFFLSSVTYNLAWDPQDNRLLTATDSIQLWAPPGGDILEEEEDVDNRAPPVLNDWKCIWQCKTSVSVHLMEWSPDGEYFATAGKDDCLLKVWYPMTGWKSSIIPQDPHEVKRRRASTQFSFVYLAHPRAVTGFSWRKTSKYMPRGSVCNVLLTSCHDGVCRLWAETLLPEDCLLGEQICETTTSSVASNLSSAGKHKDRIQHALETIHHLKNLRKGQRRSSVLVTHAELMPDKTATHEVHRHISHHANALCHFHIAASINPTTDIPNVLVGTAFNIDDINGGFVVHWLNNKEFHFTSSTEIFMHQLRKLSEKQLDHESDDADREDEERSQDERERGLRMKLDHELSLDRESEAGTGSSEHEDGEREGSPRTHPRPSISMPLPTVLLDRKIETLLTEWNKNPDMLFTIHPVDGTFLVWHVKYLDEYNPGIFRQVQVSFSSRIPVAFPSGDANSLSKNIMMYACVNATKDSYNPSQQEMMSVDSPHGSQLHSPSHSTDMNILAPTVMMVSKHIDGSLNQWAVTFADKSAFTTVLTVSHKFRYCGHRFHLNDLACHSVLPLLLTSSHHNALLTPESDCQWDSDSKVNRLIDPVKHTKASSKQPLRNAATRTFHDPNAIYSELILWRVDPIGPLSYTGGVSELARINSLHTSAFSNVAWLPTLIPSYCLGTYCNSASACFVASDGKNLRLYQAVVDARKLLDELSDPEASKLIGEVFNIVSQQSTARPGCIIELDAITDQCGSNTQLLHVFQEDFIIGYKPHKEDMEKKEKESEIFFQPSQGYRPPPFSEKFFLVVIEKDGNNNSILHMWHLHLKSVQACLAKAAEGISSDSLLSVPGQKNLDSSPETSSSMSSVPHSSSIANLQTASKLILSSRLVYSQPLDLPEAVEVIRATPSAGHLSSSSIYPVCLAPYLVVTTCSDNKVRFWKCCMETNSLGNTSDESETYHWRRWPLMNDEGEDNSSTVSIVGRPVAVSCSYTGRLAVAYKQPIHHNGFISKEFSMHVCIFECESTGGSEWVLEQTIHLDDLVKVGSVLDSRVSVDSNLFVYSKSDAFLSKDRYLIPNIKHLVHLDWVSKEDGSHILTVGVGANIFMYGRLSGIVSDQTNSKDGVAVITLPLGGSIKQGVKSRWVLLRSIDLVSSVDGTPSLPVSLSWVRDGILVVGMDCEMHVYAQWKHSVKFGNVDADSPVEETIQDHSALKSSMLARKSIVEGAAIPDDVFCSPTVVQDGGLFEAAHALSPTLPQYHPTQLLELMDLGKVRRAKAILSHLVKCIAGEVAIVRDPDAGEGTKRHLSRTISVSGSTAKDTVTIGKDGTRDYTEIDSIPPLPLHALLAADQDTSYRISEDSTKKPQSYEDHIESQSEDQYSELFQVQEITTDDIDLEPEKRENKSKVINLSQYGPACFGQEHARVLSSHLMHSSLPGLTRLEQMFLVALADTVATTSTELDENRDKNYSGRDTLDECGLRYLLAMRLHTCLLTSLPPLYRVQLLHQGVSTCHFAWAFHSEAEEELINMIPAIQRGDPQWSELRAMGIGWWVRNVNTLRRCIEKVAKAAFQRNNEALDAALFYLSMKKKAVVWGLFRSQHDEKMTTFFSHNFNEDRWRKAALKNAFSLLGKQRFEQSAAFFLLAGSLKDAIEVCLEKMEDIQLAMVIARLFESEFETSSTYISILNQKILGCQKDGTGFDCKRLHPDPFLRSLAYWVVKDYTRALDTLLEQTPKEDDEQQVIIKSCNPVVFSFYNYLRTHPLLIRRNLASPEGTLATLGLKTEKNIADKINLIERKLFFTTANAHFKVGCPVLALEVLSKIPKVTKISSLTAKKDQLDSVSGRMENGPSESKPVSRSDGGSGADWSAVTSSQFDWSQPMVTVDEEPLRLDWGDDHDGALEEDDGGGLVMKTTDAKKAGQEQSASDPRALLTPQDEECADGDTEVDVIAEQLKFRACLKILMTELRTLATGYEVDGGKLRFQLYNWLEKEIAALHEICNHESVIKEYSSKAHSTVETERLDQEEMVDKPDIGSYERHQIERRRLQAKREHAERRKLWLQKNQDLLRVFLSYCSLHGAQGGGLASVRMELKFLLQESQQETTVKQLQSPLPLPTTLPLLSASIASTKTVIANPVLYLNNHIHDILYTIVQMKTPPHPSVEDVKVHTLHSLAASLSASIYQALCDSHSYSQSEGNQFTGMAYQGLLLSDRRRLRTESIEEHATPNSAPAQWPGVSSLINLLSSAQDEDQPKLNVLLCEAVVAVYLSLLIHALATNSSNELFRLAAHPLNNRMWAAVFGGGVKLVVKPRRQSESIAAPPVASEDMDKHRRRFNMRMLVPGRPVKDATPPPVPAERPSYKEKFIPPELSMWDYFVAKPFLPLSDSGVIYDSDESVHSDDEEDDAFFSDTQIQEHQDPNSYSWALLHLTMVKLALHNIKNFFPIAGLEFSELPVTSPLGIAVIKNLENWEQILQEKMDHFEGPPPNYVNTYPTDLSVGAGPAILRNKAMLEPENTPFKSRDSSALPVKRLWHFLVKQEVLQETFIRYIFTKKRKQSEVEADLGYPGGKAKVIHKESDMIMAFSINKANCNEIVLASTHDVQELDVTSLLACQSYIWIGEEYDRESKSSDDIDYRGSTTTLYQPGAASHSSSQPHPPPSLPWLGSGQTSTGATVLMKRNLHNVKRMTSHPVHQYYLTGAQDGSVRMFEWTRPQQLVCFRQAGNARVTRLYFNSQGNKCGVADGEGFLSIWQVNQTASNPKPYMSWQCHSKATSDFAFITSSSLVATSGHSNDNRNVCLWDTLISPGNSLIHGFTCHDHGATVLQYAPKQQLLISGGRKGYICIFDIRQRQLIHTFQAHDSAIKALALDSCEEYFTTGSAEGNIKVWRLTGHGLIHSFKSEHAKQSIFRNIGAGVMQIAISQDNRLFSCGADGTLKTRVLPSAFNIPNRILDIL

Target: mouse Chek2-Flag (Checkpoint kinase 2, FLAG-tagged, overexpressed in GL261 glioma cells) (mouse) (UniProt Q9Z265)
Assay: affinity purification with mass spectrometry

binding | Molecule
binds | DmX-like protein 2 (DMXL2) (from UniProt Q8BPN8 1-3032)
binds | vesicular glutamate transporter 2 (Slc17a6) (protein, UniProt Q8BLE7 1-582) MESVKQRILAPGKEGIKNFAGKSLGQIYRVLEKKQDNRETIELTEDGKPLEVPEKKAPLCDCTCFGLPRRYIIAIMSGLGFCISFGIRCNLGVAIVDMVNNSTIHRGGKVIKEKAKFNWDPETVGMIHGSFFWGYIITQIPGGYIASRLAANRVFGAAILLTSTLNMLIPSAARVHYGCVIFVRILQGLVEGVTYPACHGIWSKWAPPLERSRLATTSFCGSYAGAVIAMPLAGILVQYTGWSSVFYVYGSFGMVWYMFWLLVSYESPAKHPTITDEERRYIEESIGESANLLGAMEKFKTPWRKFFTSMPVYAIIVANFCRSWTFYLLLISQPAYFEEVFGFEISKVGMLSAVPHLVMTIIVPIGGQIADFLRSKQILSTTTVRKIMNCGGFGMEATLLLVVGYSHTRGVAISFLVLAVGFSGFAISGFNVNHLDIAPRYASILMGISDGVGTLSGMVCPIIVGAMTKNKSREEWQYVFLIAALVHYGGVIFYALFASGEKQPWADPEETSEEKCGFIHEDELDEETGDITQNYINYGTTKSYGATSQENGGWPNGWEKKEEFVQEGAQDAYTYKDRDDYS
